In doi:10.1101/517789 one finds binding data, which are given here for five molecules.

Protein sequences, listed by entry. Tags and fused reporters are not part of them.
UniProt P11531: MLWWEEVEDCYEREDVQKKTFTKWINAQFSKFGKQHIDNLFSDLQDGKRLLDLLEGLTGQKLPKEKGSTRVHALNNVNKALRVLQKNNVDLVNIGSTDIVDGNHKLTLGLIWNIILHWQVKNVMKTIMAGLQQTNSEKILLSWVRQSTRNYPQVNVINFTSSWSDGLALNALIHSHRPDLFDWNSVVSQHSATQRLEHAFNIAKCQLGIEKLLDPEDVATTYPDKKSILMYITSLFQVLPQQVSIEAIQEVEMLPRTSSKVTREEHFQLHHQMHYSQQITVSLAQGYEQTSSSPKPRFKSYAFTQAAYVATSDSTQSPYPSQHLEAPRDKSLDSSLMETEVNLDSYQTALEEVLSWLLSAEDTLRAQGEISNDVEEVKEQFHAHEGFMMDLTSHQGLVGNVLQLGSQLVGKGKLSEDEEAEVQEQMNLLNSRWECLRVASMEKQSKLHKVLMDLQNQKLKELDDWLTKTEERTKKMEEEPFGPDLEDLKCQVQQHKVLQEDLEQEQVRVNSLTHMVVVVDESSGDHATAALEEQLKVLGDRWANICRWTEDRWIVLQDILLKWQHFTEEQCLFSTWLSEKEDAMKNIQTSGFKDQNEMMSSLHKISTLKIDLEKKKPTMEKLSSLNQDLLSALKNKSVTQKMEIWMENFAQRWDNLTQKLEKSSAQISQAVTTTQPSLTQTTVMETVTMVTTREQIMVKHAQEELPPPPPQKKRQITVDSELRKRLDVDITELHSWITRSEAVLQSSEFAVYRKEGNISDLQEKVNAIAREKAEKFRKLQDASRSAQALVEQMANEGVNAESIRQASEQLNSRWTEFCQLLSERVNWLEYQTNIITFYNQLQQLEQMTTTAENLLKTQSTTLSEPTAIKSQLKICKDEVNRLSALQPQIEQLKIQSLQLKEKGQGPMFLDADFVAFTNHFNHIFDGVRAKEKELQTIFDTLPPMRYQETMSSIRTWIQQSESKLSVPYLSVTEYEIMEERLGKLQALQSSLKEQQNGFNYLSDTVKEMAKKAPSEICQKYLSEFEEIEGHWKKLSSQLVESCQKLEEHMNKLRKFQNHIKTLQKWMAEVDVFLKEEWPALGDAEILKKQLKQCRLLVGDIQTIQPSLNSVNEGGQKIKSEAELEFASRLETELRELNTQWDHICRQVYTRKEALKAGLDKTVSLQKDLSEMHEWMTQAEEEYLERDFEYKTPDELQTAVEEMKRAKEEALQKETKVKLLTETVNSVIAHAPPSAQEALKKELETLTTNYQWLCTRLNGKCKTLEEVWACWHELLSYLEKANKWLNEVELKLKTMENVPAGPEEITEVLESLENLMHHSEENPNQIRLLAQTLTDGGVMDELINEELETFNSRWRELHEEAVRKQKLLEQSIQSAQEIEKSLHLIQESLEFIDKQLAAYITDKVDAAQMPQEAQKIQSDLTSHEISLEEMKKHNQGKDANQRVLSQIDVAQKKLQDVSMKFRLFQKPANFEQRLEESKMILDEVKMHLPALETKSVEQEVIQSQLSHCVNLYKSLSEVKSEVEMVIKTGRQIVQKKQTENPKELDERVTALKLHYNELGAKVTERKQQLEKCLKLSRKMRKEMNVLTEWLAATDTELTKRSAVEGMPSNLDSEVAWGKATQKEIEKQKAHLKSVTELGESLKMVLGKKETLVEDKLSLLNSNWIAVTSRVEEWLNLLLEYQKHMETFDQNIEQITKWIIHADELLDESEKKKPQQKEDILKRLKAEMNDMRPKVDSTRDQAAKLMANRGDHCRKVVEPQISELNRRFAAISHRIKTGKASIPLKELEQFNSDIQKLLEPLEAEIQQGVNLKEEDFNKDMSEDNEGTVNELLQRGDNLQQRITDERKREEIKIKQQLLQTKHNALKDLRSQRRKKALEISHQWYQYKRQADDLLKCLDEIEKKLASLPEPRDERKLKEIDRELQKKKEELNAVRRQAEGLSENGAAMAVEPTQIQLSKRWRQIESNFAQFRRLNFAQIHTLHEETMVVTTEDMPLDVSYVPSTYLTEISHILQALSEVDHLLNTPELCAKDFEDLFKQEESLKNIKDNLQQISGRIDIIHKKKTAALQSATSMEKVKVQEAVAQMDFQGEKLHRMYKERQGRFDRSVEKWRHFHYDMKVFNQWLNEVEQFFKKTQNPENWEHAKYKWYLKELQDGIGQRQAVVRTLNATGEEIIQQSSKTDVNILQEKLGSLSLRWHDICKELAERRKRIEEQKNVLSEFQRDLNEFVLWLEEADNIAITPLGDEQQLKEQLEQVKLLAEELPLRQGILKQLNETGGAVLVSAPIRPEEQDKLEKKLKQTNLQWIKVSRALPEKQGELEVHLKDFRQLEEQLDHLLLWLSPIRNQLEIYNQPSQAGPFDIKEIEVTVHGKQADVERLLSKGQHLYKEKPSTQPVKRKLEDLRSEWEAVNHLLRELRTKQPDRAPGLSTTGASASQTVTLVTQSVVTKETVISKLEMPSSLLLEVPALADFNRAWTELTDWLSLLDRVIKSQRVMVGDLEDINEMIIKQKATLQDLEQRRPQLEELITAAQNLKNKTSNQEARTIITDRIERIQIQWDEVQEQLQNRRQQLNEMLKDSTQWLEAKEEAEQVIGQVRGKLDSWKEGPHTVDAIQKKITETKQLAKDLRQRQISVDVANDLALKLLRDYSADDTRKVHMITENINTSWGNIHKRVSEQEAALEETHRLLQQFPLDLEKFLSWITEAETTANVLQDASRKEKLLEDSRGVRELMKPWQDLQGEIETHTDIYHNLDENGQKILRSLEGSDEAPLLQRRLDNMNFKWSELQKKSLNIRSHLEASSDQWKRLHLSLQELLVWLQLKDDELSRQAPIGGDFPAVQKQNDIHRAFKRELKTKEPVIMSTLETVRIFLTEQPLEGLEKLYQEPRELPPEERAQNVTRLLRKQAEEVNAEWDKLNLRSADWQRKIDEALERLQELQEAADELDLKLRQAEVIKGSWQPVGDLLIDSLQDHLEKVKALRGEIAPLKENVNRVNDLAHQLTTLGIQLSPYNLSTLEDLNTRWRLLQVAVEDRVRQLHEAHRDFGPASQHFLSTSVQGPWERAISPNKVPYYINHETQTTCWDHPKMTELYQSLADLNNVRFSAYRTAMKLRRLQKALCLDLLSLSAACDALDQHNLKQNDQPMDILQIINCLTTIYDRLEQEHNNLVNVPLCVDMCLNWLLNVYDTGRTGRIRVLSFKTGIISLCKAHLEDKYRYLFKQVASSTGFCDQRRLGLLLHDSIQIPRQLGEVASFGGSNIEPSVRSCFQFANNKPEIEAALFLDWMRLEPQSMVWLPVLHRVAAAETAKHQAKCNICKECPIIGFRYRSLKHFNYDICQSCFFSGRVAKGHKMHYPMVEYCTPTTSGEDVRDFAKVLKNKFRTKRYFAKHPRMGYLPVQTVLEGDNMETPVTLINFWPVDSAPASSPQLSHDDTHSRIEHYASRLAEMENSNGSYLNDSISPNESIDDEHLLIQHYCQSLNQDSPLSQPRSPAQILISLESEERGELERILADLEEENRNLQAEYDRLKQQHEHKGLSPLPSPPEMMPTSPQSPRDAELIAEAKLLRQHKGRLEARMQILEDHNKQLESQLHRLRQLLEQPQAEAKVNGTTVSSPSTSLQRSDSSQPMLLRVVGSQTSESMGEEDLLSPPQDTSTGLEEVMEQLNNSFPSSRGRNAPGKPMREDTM

The target in assay [1] is T1, α-1-syntrophin (mouse (endogenous in skeletal muscle)) (UniProt Q61234).
T1 sequence: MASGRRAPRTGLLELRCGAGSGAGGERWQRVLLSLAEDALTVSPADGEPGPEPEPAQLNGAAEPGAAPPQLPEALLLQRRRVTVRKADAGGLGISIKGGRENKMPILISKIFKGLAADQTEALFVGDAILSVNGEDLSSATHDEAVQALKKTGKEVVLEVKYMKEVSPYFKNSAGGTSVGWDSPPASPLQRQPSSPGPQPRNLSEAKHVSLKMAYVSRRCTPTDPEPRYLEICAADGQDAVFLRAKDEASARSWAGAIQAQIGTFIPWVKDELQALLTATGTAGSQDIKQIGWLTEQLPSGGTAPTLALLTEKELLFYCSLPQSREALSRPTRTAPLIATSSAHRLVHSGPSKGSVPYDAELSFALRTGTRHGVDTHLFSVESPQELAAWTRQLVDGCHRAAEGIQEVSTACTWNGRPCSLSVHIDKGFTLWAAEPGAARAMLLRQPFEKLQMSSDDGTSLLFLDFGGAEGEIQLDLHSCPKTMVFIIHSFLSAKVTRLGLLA
Kind of assay: co-IP.

Assay [2] deals with T2, 6His-tagged plakoglobin (UniProt P14923).
T2 sequence: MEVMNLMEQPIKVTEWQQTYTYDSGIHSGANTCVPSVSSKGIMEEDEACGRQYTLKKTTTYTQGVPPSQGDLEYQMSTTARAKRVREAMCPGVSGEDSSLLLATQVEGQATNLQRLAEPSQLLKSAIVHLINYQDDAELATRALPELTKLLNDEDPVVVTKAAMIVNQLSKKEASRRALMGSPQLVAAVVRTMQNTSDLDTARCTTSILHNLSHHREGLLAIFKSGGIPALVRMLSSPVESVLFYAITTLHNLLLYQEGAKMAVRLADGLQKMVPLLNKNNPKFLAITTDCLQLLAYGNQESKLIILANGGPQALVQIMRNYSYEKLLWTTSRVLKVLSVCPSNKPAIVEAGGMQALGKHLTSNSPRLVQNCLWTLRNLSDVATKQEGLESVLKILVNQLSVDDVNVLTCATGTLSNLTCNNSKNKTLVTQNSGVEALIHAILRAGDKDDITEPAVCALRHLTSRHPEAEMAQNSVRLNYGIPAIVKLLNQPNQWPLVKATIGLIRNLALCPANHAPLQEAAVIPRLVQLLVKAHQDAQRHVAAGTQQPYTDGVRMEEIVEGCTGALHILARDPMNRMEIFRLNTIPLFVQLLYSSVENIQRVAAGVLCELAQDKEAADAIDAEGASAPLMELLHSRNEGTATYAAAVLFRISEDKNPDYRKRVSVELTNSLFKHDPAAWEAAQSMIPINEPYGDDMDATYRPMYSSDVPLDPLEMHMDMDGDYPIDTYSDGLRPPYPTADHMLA
Kind of assay: pull-down.

The target of assay [3] is T3, 6His-V5-plakoglobin (FL) (UniProt P14923).
T3 sequence: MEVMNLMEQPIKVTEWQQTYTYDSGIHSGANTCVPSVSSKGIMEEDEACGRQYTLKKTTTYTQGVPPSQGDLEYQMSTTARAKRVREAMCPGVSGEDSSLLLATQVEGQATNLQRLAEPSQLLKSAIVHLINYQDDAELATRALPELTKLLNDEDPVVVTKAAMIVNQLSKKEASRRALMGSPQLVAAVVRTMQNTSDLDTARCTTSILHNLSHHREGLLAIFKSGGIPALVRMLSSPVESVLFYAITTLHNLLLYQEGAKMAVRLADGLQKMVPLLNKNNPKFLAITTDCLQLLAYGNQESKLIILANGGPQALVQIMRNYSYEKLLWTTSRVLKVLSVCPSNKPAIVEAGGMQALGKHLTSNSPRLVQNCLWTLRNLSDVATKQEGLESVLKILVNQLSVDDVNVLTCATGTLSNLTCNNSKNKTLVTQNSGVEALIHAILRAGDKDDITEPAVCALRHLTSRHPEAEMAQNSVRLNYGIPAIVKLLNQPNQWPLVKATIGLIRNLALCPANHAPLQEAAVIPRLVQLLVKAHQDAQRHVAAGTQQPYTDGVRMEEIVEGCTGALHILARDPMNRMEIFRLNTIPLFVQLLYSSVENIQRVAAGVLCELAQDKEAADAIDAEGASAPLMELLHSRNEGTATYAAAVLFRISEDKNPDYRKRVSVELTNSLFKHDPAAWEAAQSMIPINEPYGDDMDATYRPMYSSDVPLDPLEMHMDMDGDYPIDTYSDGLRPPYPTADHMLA
Kind of assay: pull-down.

The target of assay [4] is T4, plakoglobin (mouse (endogenous in skeletal muscle, heart, liver)) (UniProt Q02257).
T4 sequence: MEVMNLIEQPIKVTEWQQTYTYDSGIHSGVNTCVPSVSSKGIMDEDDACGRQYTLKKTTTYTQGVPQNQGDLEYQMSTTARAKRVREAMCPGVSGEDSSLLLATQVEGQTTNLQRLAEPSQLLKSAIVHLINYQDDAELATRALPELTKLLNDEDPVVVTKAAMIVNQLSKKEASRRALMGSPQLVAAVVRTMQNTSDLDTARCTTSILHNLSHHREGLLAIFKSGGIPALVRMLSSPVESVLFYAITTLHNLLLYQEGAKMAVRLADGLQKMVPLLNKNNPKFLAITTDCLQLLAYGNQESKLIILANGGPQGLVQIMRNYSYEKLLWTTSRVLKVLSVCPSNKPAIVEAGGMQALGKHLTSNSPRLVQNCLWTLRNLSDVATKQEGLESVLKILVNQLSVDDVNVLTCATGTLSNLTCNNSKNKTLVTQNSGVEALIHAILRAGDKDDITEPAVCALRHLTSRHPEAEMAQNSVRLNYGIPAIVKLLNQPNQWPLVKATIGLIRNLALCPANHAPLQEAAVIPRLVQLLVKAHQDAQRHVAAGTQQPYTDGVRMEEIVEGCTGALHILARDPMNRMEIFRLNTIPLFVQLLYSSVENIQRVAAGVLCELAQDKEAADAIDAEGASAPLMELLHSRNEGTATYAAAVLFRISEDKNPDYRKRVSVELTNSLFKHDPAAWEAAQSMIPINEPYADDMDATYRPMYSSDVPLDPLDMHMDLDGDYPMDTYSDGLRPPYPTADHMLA
Kind of assay: co-IP.

For assay [5], the target named is T1, α-1-syntrophin (mouse (endogenous in skeletal muscle)). Kind of assay: co-IP. This is another data set of the same source.
Assay [6] deals with T4, plakoglobin (mouse (endogenous in skeletal muscle, heart, liver)). Kind of assay: co-IP. This is another data set of the same source.

Like-named read-outs stand apart in the source and are kept apart here. No constants are given. Whether binding was seen depends on the method and setting. In cells and extracts the contact can be indirect. Some results given as binding are weak or reduced against the parent protein; the word gives no strength. For part of these data: Tags and fused reporters may be left off the sequences shown.

Consider dystrophin (from UniProt P11531 1-3678), for which, in assay [1], the binding result is given as “binds”.

B1: vinculin (protein, UniProt Q64727 1-1066)
chain: MPVFHTRTIESILEPVAQQISHLVIMHEEGEVDGKAIPDLTAPVAAVQAAVSNLVRVGKETVQTTEDQILKRDMPPAFIKVENACTKLVQAAQMLQSDPYSVPARDYLIDGSRGILSGTSDLLLTFDEAEVRKIIRVCKGILEYLTVAEVVETMEDLVTYTKNLGPGMTKMAKMIDERQQELTHQEHRVMLVNSMNTVKELLPVLISAMKIFVTTKNSKNQGIEEALKNRNFTVEKMSAEINEIIRVLQLTSWDEDAWASKDTEAMKRALASIDSKLNQAKGWLRDPNASPGDAGEQAIRQILDEAGKVGELCAGKERREILGTCKMLGQMTDQVADLRARGQGASPVAMQKAQQVSQGLDVLTAKVENAARKLEAMTNSKQSIAKKIDAAQNWLADPNGGPEGEEQIRGALAEARKIAELCDDPKERDDILRSLGEIAALTSKLGDLRRQGKGDSPEARALAKQVATALQNLQTKTNRAVANSRPAKAAVHLEGKIEQAQRWIDNPTVDDRGVGQAAIRGLVAEGHRLANVMMGPYRQDLLAKCDRVDQLTAQLADLAARGEGESPQARALASQLQDSLKDLKAQMQEAMTQEVSDVFSDTTTPIKLLAVAATAPPDAPNREEVFDERAANFENHSGRLGATAEKAAAVGTANKSTVEGIQASVKTARELTPQVISAARILLRNPGNQAAYEHFETMKNQWIDNVEKMTGLVDEAIDTKSLLDASEEAIKKDLDKCKVAMANIQPQMLVAGATSIARRANRILLVAKREVENSEDPKFREAVKAASDELSKTISPMVMDAKAVAGNISDPGLQKSFLDSGYRILGAVAKVREAFQPQEPDFPPPPPDLEQLRLTDELAPPKPPLPEGEVPPPRPPPPEEKDEEFPEQKAGEVINQPMMMAARQLHDEARKWSSKGNDIIAAAKRMALLMAEMSRLVRGGSGTKRALIQCAKDIAKASDEVTRLAKEVAKQCTDKRIRTNLLQVCERIPTISTQLKILSTVKATMLGRTNISDEESEQATEMLVHNAQNLMQSVKETVREAEAASIKIRTDAGFTLRWVRKTPWYQ
Take B1: the binding entry in assay [2] is given as “binds”.

B2: β-dystroglycan (protein, UniProt Q62165 652-893)
chain: SIVVEWTNNTLPLEPCPKEQIIGLSRRIADENGKPRPAFSNALEPDFKALSIAVTGSGSCRHLQFIPVAPPSPGSSAAPATEVPDRDPEKSSEDDVYLHTVIPAVVVAAILLIAGIIAMICYRKKRKGKLTLEDQATFIKKGVPIIFADELDDSKPPPSSSMPLILQEEKAPLPPPEYPNQSMPETTPLNQDTVGEYTPLRDEDPNAPPYQPPPPFTAPMEGKGSRPKNMTPYRSPPPYVPP
modifications: glycosylated form in the plakoglobin-containing fractions (sites not given)
As to B2, the binding entry in assay [3], in assay [4] and in assay [5] was “binds” each time.

B3: caveolin-1 (protein, UniProt P49817 1-178)
chain: MSGGKYVDSEGHLYTVPIREQGNIYKPNNKAMADEVTEKQVYDAHTKEIDLVNRDPKHLNDDVVKIDFEDVIAEPEGTHSFDGIWKASFTTFTVTKYWFYRLLSTIFGIPMALIWGIYFAILSFLHIWAVVPCIKSFLIEIQCISRVYSIYVHTFCDPLFEAIGKIFSNIRISTQKEI
With B3, the binding result in assay [2] and in assay [4] was “binds” throughout.

B4: Tyrosine Kinase Receptor, MuSK (receptor, UniProt Q61006 22-868)
chain: EKLPKAPVITTPLETVDALVEEVATFMCAVESYPQPEISWTRNKILIKLFDTRYSIRENGQLLTILSVEDSDDGIYCCIANNGVGGAVESCGALQVKMKPKITRPPINVKIIEGLKAVLPCTTMGNPKPSVSWIKGDNALRENSRIAVLESGSLRIHNVQKEDAGQYRCVAKNSLGTAYSKLVKLEVEVFARILRAPESHNVTFGSFVTLRCTAIGIPVPTISWIENGNAVSSGSIQESVKDRVIDSRLQLFITKPGLYTCIATNKHGEKFSTAKAAATVSIAEWSKSQKDSQGYCAQYRGEVCDAVLAKDALVFFNTSYRDPEDAQELLIHTAWNELKAVSPLCRPAAEALLCNHLFQECSPGVVPTPMPICREYCLAVKELFCAKEWQAMEGKAHRGLYRSGMHLLPVPECSKLPSMHRDPTACTRLPYLDYKKENITTFPSITSSRPSADIPNLPASTSSFAVSPAYSMTVIISIVSSFALFALLTIATLYCCRRRKEWKNKKRESTAVTLTTLPSELLLDRLHPNPMYQRMPLLLNPKLLSLEYPRNNIEYVRDIGEGAFGRVFQARAPGLLPYEPFTMVAVKMLKEEASADMQADFQREAALMAEFDNPNIVKLLGVCAVGKPMCLLFEYMAYGDLNEFLRSMSPHTVCSLSHSDLSTRARVSSPGPPPLSCAEQLCIARQVAAGMAYLSERKFVHRDLATRNCLVGETMVVKIADFGLSRNIYSADYYKADGNDAIPIRWMPPESIFYNRYTTESDVWAYGVVLWEIFSYGLQPYYGMAHEEVIYYVRDGNILACPENCPLELYNLMRLCWSKLPADRPSFCSIHRILQRMCERAEGTVGV
As for B4, the binding result in assay [6] and in assay [4] was “no binding” each time.
